# Screening data, single-dose tests

Protein sequences, listed by entry. Tags and fused reporters are not part of them. Residues count along the entry.
UniProt P9WNZ1, whole entry: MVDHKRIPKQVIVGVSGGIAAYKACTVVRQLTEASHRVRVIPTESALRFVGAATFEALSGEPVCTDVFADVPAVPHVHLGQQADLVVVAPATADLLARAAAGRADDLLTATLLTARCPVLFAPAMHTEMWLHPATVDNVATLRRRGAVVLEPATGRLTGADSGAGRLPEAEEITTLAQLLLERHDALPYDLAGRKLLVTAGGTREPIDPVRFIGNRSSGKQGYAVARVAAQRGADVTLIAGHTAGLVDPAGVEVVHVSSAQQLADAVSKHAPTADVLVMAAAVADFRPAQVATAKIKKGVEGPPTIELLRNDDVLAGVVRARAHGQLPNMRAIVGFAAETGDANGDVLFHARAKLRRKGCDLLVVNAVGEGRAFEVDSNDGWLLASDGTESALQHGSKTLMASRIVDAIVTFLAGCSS
UniProt I6X8D2, whole entry: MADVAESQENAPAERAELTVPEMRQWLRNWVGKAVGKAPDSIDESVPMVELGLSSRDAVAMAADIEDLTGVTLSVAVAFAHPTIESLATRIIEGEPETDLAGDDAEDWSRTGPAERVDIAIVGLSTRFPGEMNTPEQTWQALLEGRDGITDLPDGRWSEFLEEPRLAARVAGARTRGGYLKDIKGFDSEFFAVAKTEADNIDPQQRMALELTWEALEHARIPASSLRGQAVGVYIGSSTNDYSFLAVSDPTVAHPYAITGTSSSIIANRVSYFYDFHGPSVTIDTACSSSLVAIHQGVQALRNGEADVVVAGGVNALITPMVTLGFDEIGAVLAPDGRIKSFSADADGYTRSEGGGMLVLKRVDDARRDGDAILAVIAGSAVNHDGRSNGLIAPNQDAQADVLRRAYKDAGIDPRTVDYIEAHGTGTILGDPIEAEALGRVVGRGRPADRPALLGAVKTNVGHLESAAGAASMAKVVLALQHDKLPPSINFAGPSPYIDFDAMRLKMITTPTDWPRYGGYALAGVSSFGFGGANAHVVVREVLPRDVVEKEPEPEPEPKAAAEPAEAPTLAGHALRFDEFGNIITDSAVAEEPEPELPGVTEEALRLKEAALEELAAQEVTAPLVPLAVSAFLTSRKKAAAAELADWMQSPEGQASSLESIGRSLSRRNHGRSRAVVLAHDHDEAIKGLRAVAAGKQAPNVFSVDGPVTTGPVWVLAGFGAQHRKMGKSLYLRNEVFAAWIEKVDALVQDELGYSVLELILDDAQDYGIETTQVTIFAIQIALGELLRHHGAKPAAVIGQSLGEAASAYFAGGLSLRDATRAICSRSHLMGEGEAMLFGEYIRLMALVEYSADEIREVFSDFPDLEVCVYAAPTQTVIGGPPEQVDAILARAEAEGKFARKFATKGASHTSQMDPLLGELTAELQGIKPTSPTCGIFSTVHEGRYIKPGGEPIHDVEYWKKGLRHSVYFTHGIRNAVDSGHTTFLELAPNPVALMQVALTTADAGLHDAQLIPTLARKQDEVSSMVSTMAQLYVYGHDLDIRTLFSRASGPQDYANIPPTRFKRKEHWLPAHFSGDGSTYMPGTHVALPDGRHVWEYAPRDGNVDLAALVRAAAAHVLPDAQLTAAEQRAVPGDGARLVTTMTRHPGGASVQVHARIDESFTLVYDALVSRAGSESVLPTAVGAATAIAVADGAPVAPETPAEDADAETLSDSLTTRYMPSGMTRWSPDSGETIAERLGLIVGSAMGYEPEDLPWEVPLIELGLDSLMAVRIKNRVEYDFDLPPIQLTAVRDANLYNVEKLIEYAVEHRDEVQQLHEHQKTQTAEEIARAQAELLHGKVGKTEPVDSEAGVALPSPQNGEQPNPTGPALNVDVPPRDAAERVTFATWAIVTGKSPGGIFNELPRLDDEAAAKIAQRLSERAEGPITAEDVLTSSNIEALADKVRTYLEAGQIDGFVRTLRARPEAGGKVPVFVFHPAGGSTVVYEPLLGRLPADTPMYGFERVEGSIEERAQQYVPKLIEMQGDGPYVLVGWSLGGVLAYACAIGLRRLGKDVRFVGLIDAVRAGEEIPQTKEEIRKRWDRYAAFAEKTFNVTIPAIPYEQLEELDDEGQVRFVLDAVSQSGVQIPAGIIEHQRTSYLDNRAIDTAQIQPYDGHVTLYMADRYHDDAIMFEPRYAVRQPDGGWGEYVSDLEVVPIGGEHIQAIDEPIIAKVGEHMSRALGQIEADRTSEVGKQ
UniProt P9WPC5, whole entry: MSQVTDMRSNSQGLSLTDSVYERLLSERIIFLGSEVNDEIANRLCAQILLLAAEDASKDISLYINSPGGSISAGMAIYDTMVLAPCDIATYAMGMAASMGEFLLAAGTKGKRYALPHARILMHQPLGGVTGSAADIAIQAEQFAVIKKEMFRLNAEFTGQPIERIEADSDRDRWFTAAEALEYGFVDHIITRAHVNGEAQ
UniProt P9WPC3, whole entry partner: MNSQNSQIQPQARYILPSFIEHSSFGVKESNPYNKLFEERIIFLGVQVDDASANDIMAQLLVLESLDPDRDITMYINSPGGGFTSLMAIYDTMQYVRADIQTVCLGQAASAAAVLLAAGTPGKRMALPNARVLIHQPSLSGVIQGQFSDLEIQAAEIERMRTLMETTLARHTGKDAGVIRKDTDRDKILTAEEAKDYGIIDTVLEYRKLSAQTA
UniProt A4I591, 1-473: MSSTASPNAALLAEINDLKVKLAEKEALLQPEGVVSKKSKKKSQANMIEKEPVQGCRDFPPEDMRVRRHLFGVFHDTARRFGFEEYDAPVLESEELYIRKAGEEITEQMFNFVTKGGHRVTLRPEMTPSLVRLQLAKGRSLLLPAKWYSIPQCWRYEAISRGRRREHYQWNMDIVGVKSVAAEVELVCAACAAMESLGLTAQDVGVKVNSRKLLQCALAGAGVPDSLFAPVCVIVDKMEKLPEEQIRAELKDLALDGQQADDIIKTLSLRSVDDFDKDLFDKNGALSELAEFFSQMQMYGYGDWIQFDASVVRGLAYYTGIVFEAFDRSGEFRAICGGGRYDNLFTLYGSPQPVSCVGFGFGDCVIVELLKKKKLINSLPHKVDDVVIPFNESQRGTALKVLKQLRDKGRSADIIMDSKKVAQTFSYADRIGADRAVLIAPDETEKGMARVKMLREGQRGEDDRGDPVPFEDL
UniProt P9WFT3, whole entry: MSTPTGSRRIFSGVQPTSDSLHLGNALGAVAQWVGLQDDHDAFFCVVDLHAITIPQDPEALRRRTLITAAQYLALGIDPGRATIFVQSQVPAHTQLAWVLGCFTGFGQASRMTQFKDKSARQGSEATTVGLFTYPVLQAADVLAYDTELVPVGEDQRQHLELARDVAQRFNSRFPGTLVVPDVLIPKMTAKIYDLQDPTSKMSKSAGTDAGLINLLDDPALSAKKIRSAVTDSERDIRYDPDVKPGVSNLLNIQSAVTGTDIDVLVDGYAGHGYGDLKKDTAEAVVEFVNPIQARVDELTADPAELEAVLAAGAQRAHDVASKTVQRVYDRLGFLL

Results are given as percent effect. The record does not define 0% and 100%; most values in the screen are far below 50% and negative numbers occur (in some assays of this library far below -100). Compounds were drawn at random from those tested, without regard to their results.

CoaBC: 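Coenzyme A biosynthesis protein CoaBC, Mycobacterium tuberculosis (UniProt P9WNZ1). Enzyme assay of CoaBC with a phosphate dye (Biomol Green) read at 650 nm. Concentration: 30 µM. Direction is inferred from only a few compounds that gave an IC50; most scored high, so higher reads as stronger inhibition. Most strong results did not repeat in a second test. About 67,000 compounds were tested under these conditions; 0.06% (about 40) showed 50% or more at least once.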
Pks13 thioesterase: 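Enzyme assay of the thioesterase domain of polyketide synthase 13; the read-out is not stated. Target: Polyketide synthase Pks13, Mycobacterium tuberculosis (UniProt I6X8D2). Tested at 30 µM. The record gives no direction; the compounds picked for IC50 retests had high values, so higher reads as stronger inhibition. Size under these conditions: about 67,000 compounds, about 300 of them at 50% or above in at least one test.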
ClpP1P2: 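Protease assay of ClpP1P2, read by the AMC dye that it sets free. Target: ClpP1P2, Mycobacterium tuberculosis (UniProt P9WPC5 and UniProt P9WPC3). Concentration: 50 µM. Higher reads as stronger inhibition, judged from the few compounds that gave an IC50. Most other retested compounds had strongly negative values. Size under these conditions: about 69,000 compounds, about 10 of them at 50% or above in at least one test.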
Toxoplasma: 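Assay of Toxoplasma gondii numbers, read through their beta-galactosidase reporter with a colour substrate. Tested at 10 µM. Higher reads as fewer parasites (inferred from which compounds were picked for retests). Of about 67,000 compounds tested this way, about 260 (0.38%) reached 50% or more in at least one test.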
LiHisRS: 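Enzyme assay of histidyl-tRNA synthetase; the read-out is not stated. Target: Histidine-tRNA ligase, Leishmania infantum (UniProt A4I591). Tested at 30 µM. The record gives no direction; compounds that gave an IC50 in retests scored well above the rest, so higher reads as stronger inhibition. The assay is labelled LdHisRS but filed under L. infantum. Size under these conditions: about 69,000 compounds, about 410 of them at 50% or above in at least one test.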
MtTrpRS: 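Tryptophan-tRNA ligase, Mycobacterium tuberculosis (UniProt P9WFT3). Enzyme assay of tryptophanyl-tRNA synthetase; the read-out is not stated. Concentration: 10 µM. Direction is not recorded; retested compounds ran higher, which suggests that high means inhibition. Size under these conditions: about 65,000 compounds, about 64 of them at 50% or above in at least one test.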

CCc1c(C)sc2c1c(N)nc(=O)n2CCN1CCOCC1 read CoaBC: -10.42%; Pks13 thioesterase: -13.62%; ClpP1P2: 0.7718%; Toxoplasma: 16.17%; LiHisRS: 25.84%; MtTrpRS: 1.699%. For O=C(O)c1csc(S(=O)(=O)Nc2cccc(OC(F)F)c2)c1 the result was CoaBC: -2.332%; Pks13 thioesterase: 24.72%; ClpP1P2: 9.048%; Toxoplasma: -17.67%; LiHisRS: 14.89%; MtTrpRS: -3.935%. COc1cc(N2CCCC(CO)(Cc3ccccc3F)C2)ncn1 (configuration not stated) read CoaBC: 11.25%; Pks13 thioesterase: 1.91%; ClpP1P2: -13.1%; Toxoplasma: 13.17%; LiHisRS: 9.735%; MtTrpRS: -2.261%. COCCN1CCC(NCc2c(C)nn(C)c2N(C)C)CC1 read CoaBC: -1.966%; Pks13 thioesterase: -4.222%; ClpP1P2: 2.467%; Toxoplasma: 6.991%; LiHisRS: 15.08%; MtTrpRS: 0.5228%. For CC(C)CN1CCCC1c1cc[nH]n1 (configuration not stated) the result was CoaBC: 3.963%; Pks13 thioesterase: 14.19%; ClpP1P2: -5.377%; Toxoplasma: 1.809%; LiHisRS: 31.21%; MtTrpRS: -4.762%.

With CC(O)CNC(=O)NCCCN1CCN(c2ncccn2)CC1 (configuration not stated) the screen gave CoaBC: -0.6036%; Pks13 thioesterase: -10.22%; ClpP1P2: 2.129%; Toxoplasma: 0.5036%; LiHisRS: 15.38%; MtTrpRS: -4.19%. Result for O=C(CC1CCN(CCc2ccccc2)CC1)NC1CCOCC1 was CoaBC: 7.126%; Pks13 thioesterase: 4.71%; ClpP1P2: -13.26%; LiHisRS: 12.68%; MtTrpRS: -2.378%. With COc1cc(N2CCC3(CCN(Cc4csc(C)n4)C3)CC2)ncn1 the screen gave CoaBC: 3.96%; Pks13 thioesterase: -3.118%; ClpP1P2: -7.459%; LiHisRS: 4.505%. For CC(C)N(Cc1ccccc1)Cc1nnsc1Cl the result was CoaBC: 6.09%; Pks13 thioesterase: -10.34%; ClpP1P2: -7.761%; Toxoplasma: -21.44%; LiHisRS: 2.632%; MtTrpRS: -4.046%. Cc1ccc(OCc2nc(CNCCn3cccn3)cs2)cc1 gave CoaBC: 3.255%; Pks13 thioesterase: -5.947%; ClpP1P2: 3.393%; Toxoplasma: 12.2%; LiHisRS: 19.35%; MtTrpRS: -1.583%.

For CCOCCN1CCN(CC(=O)N2CCCC2)CC1C (configuration not stated) the result was CoaBC: -3.62%; Pks13 thioesterase: -1.978%; ClpP1P2: -0.6799%; Toxoplasma: 3.756%; LiHisRS: 3.306%; MtTrpRS: 0.9382%. Result for O=C(CCSC1CCc2ccccc2NC1=O)NCCCO (configuration not stated) was CoaBC: -0.2554%; Pks13 thioesterase: -43.09%; ClpP1P2: -11.29%; Toxoplasma: -13.77%; LiHisRS: 20.78%; MtTrpRS: 1.483%. Cn1ccc(C(=O)NC2CCC23CCN(C(=O)c2ccccn2)CC3)c1 (configuration not stated) read CoaBC: 1.015%; Pks13 thioesterase: -24.37%; ClpP1P2: -8.478%; Toxoplasma: -14.26%; LiHisRS: 14.71%; MtTrpRS: -8.807%. CCN1CC(C(=O)N2CCc3cc(C(=O)N(C)C)n(C)c3C2)CCC1=O (configuration not stated) read CoaBC: 11.6%; Pks13 thioesterase: -22.74%; ClpP1P2: 0.8594%; Toxoplasma: 11.23%; LiHisRS: 17.95%; MtTrpRS: 1.163%.

Once more, the final 2:

With Cn1ccc(C(=O)NC2CCC23CCN(C(=O)c2ccccn2)CC3)c1 (configuration not stated) the screen gave CoaBC: 1.015%; Pks13 thioesterase: -24.37%; ClpP1P2: -8.478%; Toxoplasma: -14.26%; LiHisRS: 14.71%; MtTrpRS: -8.807%.
With CCN1CC(C(=O)N2CCc3cc(C(=O)N(C)C)n(C)c3C2)CCC1=O (configuration not stated) the screen gave CoaBC: 11.6%; Pks13 thioesterase: -22.74%; ClpP1P2: 0.8594%; Toxoplasma: 11.23%; LiHisRS: 17.95%; MtTrpRS: 1.163%.

Measurements from “University of Dundee, Small-Polar-MMV Screening Library” (2021), ChEMBL document CHEMBL3988442.